From patent publication EP1780277A1
Results are given in words; binding and its absence hold for the method and conditions named. Some entries that bind do so weakly or less than the wild type. Where a sequence is shown, tags or fusion partners need not be part of it.

Protein sequences, listed by entry. Tags and fused reporters are not part of them. Lines headed by an entry give the natural chain unless they say otherwise; changes in a name come on top.
UniProt P04386: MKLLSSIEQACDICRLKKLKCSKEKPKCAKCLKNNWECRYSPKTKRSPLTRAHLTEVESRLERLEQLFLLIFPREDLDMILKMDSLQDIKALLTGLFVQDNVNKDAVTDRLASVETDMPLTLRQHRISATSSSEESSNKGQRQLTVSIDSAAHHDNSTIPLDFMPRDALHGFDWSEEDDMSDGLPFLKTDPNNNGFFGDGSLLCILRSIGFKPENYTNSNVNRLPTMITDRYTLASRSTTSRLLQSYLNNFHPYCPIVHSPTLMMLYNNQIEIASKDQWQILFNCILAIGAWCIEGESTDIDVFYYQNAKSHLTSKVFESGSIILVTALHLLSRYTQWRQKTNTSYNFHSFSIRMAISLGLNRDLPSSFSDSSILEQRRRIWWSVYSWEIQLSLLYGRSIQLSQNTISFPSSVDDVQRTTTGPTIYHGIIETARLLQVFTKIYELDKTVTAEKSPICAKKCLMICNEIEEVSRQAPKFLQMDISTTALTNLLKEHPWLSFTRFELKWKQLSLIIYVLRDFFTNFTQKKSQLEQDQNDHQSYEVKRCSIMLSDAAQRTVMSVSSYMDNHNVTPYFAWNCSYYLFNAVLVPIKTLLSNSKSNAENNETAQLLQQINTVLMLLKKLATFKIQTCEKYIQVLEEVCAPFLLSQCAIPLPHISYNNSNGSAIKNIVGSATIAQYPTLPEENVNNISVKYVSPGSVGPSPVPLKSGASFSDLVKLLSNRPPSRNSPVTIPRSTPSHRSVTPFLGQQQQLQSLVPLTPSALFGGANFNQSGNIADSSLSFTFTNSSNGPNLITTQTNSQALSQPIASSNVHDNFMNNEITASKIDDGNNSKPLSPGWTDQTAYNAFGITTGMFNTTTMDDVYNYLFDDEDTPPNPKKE
UniProt P17181: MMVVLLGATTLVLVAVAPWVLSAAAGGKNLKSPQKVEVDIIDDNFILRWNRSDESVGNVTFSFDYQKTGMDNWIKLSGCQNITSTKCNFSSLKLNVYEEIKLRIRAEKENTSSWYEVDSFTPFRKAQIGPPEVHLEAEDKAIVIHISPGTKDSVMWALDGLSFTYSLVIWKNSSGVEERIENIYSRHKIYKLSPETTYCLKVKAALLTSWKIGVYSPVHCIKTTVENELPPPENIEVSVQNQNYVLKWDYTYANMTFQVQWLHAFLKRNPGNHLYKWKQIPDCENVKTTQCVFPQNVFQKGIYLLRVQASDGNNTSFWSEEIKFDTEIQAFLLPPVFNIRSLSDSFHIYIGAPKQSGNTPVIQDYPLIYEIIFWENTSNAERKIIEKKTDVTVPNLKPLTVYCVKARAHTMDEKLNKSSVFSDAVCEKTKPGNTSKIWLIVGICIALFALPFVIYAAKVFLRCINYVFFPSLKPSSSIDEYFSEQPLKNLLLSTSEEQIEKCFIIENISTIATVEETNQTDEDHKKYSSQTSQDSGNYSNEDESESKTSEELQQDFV

What was measured:
[1] = target: T1, IFNAR1-IC domain fused to the Gal4 DNA-binding domain (pGBT10-IFNAR1-IC) (human) (UniProt P04386+P17181); assay: yeast two-hybrid in SFY526, X-gal staining positive in streak 2
[2] = target: T1, IFNAR1-IC domain fused to the Gal4 DNA-binding domain (pGBT10-IFNAR1-IC) (human); assay: yeast two-hybrid in SFY526
[3] = target: T1, IFNAR1-IC domain fused to the Gal4 DNA-binding domain (pGBT10-IFNAR1-IC) (human); assay: yeast two-hybrid

Measured: binding

B1: IR1B1 fused to the Gal4 activation domain (pACT clone IR1B1) (protein, not shown: large carriers)
chain: MGGSGSRLSKELLAEYQDLTFLTKQEILLAHRRFCELLPQEQRSVESSLRAQVPFEQILSLPELKANPFKERICRVFSTSPAKDSLSFEDFLDLLSVFSDTATPDIKSHYAFRIFDFDDDGTLNREDLSRLVNCLTGEGEDTRLSASEMKQLIDYILEESDIDRDGTINLSEFQHVISRSPDFASSFKIVL
binds: all assays above
